Results are given in words; binding and its absence hold for the method and conditions named. Some binding calls cover weakened binding; strength is not graded here. Sequences can lack the tags named with a protein.
Tests used:
[1] = molecular target: human CD27 on the cell surface (T cells, transfected HEK293F cells, Daudi cells, NFκB-luc2/CD27 Jurkat cells) (human) (UniProt P26842); assay: flow cytometry on T cells and transfected HEK293F cells
[2] = molecular target: human CD27 on the cell surface (T cells, transfected HEK293F cells, Daudi cells, NFκB-luc2/CD27 Jurkat cells) (human) (UniProt P26842); assay: flow cytometry on human T cells (PBMC) and CD27-transfected HEK293F cells
[3] = molecular target: human CD27 on the cell surface (T cells, transfected HEK293F cells, Daudi cells, NFκB-luc2/CD27 Jurkat cells) (human) (UniProt P26842); assay: flow cytometry on T cells in human PBMC (endogenous CD27), PE-labeled goat anti-human IgG, median MFI PE
[4] = molecular target: human CD27 on the cell surface (T cells, transfected HEK293F cells, Daudi cells, NFκB-luc2/CD27 Jurkat cells) (human) (UniProt P26842); assay: flow cytometry on HEK293F cells transfected with human CD27, PE-labeled goat anti-human IgG, median MFI PE

Chains of the proteins cited; added tags and fusions are not shown. Lines headed by an entry give the natural chain unless they say otherwise; changes in a name come on top.
UniProt P26842: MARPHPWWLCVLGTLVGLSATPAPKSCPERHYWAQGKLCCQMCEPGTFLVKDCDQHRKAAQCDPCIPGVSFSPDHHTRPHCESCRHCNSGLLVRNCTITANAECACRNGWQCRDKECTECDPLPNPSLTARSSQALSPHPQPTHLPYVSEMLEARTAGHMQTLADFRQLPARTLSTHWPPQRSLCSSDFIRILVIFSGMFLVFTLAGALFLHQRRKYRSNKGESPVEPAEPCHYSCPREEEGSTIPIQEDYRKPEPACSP

Measured: binding

B1: IgG1-CD27-A carrying F405L-L234F-L235E-D265A in the IgG Fc domain (antibody, V domains shown)
VH: QVQLMQSGSELKKPGASVKVSCRASGYTFTTYAMNWVRQAPGQGPEWMGWINTNTGNPTYAQGFTGRFVFSLDTTVTTTYLQISSLKAEDTAVYFCAREAGSFDYWGQGTLVTVSS
VL: QSALTQPASVSGSPGQSITISCTGTSSDVYYYNYVSWYQQHPGRAPKLVIYDVSNRPSGVSNRFSGSKSGNTASLTISGLRAEDEADYYCSSYTVNRVWVFGGGTKLTVL
binds: all assays above
